PubChem BioAssay AID1259327 | Drosophila RNAi Screening Center | 2017
Here is an unselected part of about 3,100 reagents tested. 378 of them (12%) count as active. 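Hits include both directions; z-score sign shows ATP rise or fall; raw luminescence values are not plate-normalised.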 A plus sign joins genes that one reagent is predicted to hit. Reagent sequences are not shown. Not given: the amount of reagent.

- Aim: 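Baseline ATP after transmembrane-protein gene knock-down with water vehicle only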
- Cell system: Drosophila S2R+ cells
- Reagents: long dsRNA against Drosophila genes
- Timing: 5 days (water added on day 4, read one day later)
- Challenge: water added as vehicle, no metal, one day before read-out
- Read-out: 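Total ATP measured by luciferase light, scaled to plate mean, duplicates averaged, then z-scored across plates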
- Direction: ATP z-score: higher = more total ATP than typical wells; ATP luminescence: higher = more total ATP
- Active means: 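a hit is any knock-down whose absolute ATP z-score is greater than 1.5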
- Meaning of the calls: active = hit: ATP up or down; inactive = no clear ATP change

| Target gene | DRSC id | ATP z-score, duplicate mean | ATP luminescence, replicate 1 (RLU) | ATP luminescence, replicate 2 (RLU) | outcome |
| --- | --- | --- | --- | --- | --- |
| Rh7 | DRSC10529 | -0.413 | 6.33e5 | 7.42e5 | inactive |
| Rh7 | DRSC28331 | 1.86 | 1.12e6 | 9.77e5 | active |
| CG9864 | DRSC07346 | 1.07 | 8.44e5 | 5.89e5 | inactive |
| CG9864 | DRSC28765 | -0.752 | 8.34e5 | 6.39e5 | inactive |
| Spase25 | DRSC19776 | 0.868 | 7.81e5 | 8.09e5 | inactive |
| Spase25 | DRSC39745 | 0.449 | 3.97e5 | 5.98e5 | inactive |
| Nup107 | DRSC01999 | -1.13 | 6.02e5 | 6.09e5 | inactive |
| CG31106 | DRSC14655 | 0.0182 | 3.15e5 | 7.25e5 | inactive |
| TyrR | DRSC16242 | 0.153 | 3.29e5 | 7.21e5 | inactive |
| TyrR | DRSC39601 | 1.74 | 6.39e5 | 5.26e5 | active |
| CG14743 | DRSC06479 | 0.747 | 6.27e5 | 7.48e5 | inactive |
| CG14743 | DRSC39688 | -2.06 | 3.35e5 | 3.14e5 | active |
| Gr32a | DRSC02400 | -0.192 | 7.18e5 | 6.93e5 | inactive |
| Gr32a | DRSC39450 | -1.31 | 3.59e5 | 3.73e5 | inactive |
| kug | DRSC10911 | 0.0615 | 7.18e5 | 7.58e5 | inactive |
| CG5715 | DRSC15860 | 0.547 | 3.19e5 | 8.34e5 | inactive |
| CG5715 | DRSC26011 | -0.691 | 7.39e5 | 7.90e5 | inactive |
| mthl13 | DRSC05238 | 0.0643 | 7.47e5 | 7.52e5 | inactive |
| if | DRSC20341 | -0.411 | 6.77e5 | 7.20e5 | inactive |
| if | DRSC39458 | -0.426 | 4.43e5 | 4.07e5 | inactive |
| nrv3 | DRSC03097 | -1.08 | 6.05e5 | 6.17e5 | inactive |
| Nhe1 | DRSC00762 | -0.707 | 4.33e5 | 4.26e5 | inactive |
| Nhe1 | DRSC39761 | 0.34 | 4.85e5 | 5.21e5 | inactive |
| pain | DRSC04273 | 0.0332 | 7.29e5 | 7.31e5 | inactive |
| pain | DRSC28351 | -1.13 | 7.82e5 | 6.00e5 | inactive |
| Eph | DRSC17164 | -0.113 | 8.47e5 | 8.01e5 | inactive |
| Eph | DRSC36767 | -0.817 | 5.52e5 | 4.68e5 | inactive |
| Eph | DRSC36768 | -0.319 | 5.37e5 | 5.68e5 | inactive |
| shg | DRSC04714 | 0.29 | 7.78e5 | 7.45e5 | inactive |
| shg | DRSC38948 | -1.52 | 4.47e5 | 4.55e5 | active |
| ZnT33D | DRSC02591 | 0.657 | 8.02e5 | 7.90e5 | inactive |
| ZnT33D | DRSC39537 | 0.0962 | 4.31e5 | 4.86e5 | inactive |
| hbs | DRSC07627 | 0.569 | 5.68e5 | 7.75e5 | inactive |
| hbs | DRSC39446 | -0.785 | 4.12e5 | 3.91e5 | inactive |
| CG14855 | DRSC14979 | 0.684 | 3.12e5 | 8.80e5 | inactive |
| CG14855 | DRSC39527 | -0.284 | 4.45e5 | 4.24e5 | inactive |
| mthl1 | DRSC19905 | 0.0402 | 7.44e5 | 7.50e5 | inactive |
| mthl1 | DRSC39903 | -0.373 | 5.41e5 | 5.65e5 | inactive |
| CG44153 | DRSC02228 | 0.701 | 5.03e5 | 5.55e5 | inactive |
| CG44153 | DRSC02902 | -0.924 | 6.44e5 | 6.13e5 | inactive |
| CG44153 | DRSC02903 | -0.139 | 9.00e5 | 8.56e5 | inactive |
| heix | DRSC03542 | 2.48 | 6.96e5 | 6.05e5 | active |
| heix | DRSC39734 | 0.115 | 4.58e5 | 4.89e5 | inactive |
| PGRP-SB2 | DRSC11092 | -0.629 | 6.90e5 | 6.57e5 | inactive |
| CG45067 + CG45066 | DRSC08414 | 0.0892 | 8.99e5 | 9.15e5 | inactive |
| CG45067 + CG45066 | DRSC27186 | -1.1 | 9.20e5 | 9.68e5 | inactive |
| Nup93-1 | DRSC19344 | 0.589 | 7.80e5 | 7.53e5 | inactive |
| Nup93-1 | DRSC39780 | 1.35 | 5.54e5 | 5.93e5 | inactive |
| Cnx99A | DRSC25426 | -1.99 | 6.24e5 | 5.80e5 | active |
| Gr43a | DRSC06658 | 0.205 | 6.70e5 | 6.05e5 | inactive |
| Gr43a | DRSC39580 | -1.13 | 4.00e5 | 3.77e5 | inactive |
| CG15096 | DRSC06525 | 0.834 | 8.04e5 | 8.37e5 | inactive |
| CG15096 | DRSC29737 | -0.46 | 7.92e5 | 7.45e5 | inactive |
| CG3397 | DRSC15487 | -0.708 | 6.51e5 | 6.14e5 | inactive |
| CG3397 | DRSC39547 | 2 | 5.48e5 | 6.57e5 | active |
| Drl-2 | DRSC06155 | -0.244 | 7.15e5 | 7.17e5 | inactive |
| Drl-2 | DRSC06858 | -0.573 | 5.20e5 | 6.16e5 | inactive |
| Drl-2 | DRSC36862 | -0.596 | 4.36e5 | 6.24e5 | inactive |
| Drl-2 | DRSC36863 | -1.46 | 4.61e5 | 4.51e5 | inactive |
| NtR | DRSC04628 | -0.698 | 6.59e5 | 6.45e5 | inactive |
| NtR | DRSC27686 | -0.497 | 8.69e5 | 8.83e5 | inactive |
| ACXA | DRSC25338 | -0.24 | 8.51e5 | 7.90e5 | inactive |
| ACXA | DRSC39549 | -0.773 | 3.58e5 | 4.70e5 | inactive |
| CG12490 + CG30265 | DRSC25712 | 1.01 | 1.12e6 | 9.69e5 | inactive |
| CG7218 | DRSC16216 | 0.276 | 7.57e5 | 7.12e5 | inactive |
| CG7218 | DRSC27550 | 0.2 | 7.92e5 | 8.60e5 | inactive |
| CG32054 | DRSC10684 | 0.019 | 9.15e5 | 8.83e5 | inactive |
| CG32054 | DRSC24449 | -2.1 | 5.64e5 | 5.76e5 | active |

An excerpt from above, showing only “ATP z-score, duplicate mean”.
CG14743 [DRSC06479]	0.747
CG14743 [DRSC39688]	-2.06
Gr32a [DRSC02400]	-0.192
Gr32a [DRSC39450]	-1.31
kug [DRSC10911]	0.0615
CG5715 [DRSC15860]	0.547
CG5715 [DRSC26011]	-0.691
mthl13 [DRSC05238]	0.0643
if [DRSC20341]	-0.411
